Article PMC4931344
Results are given in words; binding and its absence hold for the method and conditions named. Binding seen in cells or lysates may run through a third protein. Some entries that bind do so weakly or less than the wild type. For part of these data: Tags and fused reporters may be left off the sequences shown.

The chains behind the UniProt entries cited, without tags or fusion partners.
UniProt O95433: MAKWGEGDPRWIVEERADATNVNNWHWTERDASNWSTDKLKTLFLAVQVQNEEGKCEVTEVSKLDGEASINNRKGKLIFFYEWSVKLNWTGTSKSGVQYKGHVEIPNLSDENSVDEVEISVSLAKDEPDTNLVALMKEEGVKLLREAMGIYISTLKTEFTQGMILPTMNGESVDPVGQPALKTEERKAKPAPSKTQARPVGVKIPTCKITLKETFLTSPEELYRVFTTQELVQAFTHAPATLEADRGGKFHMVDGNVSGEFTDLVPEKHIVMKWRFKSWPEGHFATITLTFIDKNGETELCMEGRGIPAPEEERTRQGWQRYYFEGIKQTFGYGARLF
UniProt P15056: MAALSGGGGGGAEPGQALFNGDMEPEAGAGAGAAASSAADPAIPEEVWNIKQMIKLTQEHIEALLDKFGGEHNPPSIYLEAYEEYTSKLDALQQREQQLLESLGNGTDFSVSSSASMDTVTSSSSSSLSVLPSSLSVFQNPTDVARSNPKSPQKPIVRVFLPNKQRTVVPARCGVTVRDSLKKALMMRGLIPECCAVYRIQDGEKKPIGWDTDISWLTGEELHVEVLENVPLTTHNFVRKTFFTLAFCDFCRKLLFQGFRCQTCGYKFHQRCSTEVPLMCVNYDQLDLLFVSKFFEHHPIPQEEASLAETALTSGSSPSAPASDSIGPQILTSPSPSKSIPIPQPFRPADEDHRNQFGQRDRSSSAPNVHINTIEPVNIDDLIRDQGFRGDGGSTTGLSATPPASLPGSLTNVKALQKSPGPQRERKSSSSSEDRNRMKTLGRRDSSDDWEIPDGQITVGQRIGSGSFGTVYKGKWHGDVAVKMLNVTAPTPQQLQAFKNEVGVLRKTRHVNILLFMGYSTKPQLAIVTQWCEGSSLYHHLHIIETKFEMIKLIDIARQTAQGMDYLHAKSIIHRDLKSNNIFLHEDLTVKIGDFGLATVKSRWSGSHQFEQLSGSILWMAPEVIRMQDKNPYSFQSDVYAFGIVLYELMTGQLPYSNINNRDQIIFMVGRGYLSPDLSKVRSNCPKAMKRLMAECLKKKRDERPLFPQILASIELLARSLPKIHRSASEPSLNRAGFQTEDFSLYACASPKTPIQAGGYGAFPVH
UniProt Q9UNE7: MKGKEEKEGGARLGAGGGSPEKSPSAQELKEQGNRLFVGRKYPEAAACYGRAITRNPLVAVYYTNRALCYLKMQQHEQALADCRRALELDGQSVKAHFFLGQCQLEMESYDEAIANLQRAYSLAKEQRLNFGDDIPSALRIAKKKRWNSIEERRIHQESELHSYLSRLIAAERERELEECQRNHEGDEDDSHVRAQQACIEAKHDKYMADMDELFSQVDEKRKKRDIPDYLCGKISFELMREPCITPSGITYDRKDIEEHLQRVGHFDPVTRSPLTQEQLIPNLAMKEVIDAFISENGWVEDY
UniProt P04150: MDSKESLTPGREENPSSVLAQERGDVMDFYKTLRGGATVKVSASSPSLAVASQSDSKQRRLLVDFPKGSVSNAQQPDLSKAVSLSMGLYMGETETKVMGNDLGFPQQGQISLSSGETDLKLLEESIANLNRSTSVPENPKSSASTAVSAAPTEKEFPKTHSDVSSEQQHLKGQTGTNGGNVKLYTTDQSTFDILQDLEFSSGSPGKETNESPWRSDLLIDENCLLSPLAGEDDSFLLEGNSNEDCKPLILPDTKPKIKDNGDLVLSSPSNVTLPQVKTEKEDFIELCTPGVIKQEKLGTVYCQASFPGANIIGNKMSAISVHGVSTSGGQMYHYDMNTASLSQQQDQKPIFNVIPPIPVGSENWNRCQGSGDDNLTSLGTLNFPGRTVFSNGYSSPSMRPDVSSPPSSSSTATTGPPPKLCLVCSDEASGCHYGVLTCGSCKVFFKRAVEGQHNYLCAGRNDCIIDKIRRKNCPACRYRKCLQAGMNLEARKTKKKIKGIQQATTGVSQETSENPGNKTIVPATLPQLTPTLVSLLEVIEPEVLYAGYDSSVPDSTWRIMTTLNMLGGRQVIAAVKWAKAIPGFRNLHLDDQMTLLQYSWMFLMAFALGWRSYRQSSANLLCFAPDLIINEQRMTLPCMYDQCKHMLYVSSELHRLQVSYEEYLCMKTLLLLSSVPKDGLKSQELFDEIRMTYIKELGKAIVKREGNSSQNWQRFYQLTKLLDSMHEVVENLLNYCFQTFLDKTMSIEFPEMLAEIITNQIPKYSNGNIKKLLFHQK

Legend:
[1] = molecular target: T1, FLAG–FLCN (amino-terminally FLAG-tagged folliculin) (UniProt Q8NFG4); test: co-IP; FLAG–FLCN (empty vector control) immunoprecipitated from HEK293, immunoblot
T1 sequence: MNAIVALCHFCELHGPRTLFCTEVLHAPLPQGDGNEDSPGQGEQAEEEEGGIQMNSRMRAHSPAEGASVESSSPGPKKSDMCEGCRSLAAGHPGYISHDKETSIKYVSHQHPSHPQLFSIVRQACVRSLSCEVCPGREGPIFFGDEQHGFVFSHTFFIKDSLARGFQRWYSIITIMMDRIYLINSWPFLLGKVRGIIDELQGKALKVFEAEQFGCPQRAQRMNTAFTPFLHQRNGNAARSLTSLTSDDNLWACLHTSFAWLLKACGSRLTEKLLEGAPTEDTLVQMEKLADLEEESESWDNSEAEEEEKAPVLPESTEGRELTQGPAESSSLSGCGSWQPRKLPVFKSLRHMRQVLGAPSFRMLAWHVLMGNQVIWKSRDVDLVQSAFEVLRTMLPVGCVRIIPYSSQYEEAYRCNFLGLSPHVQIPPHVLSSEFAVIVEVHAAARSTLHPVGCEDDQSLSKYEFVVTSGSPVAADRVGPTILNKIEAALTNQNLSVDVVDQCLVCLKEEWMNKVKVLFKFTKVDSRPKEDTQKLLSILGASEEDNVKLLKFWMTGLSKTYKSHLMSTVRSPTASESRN

[2] = molecular target: T2, endogenous FLCN (folliculin) (human (endogenous in HEK293)) (UniProt Q8NFG4); test: co-IP; endogenous FLCN isolated from HEK293 lysates with anti-FLCN (IgG control), immunoblot
T2 sequence: T1 sequence

[3] = molecular target: T3, endogenous FNIP1 (folliculin-interacting protein 1) (human (endogenous in HEK293, cancer cell lines and renal tissue)) (UniProt Q8TF40); test: co-IP; endogenous FNIP1 and FNIP2 isolated from HEK293 lysates with anti-FNIP1 or anti-FNIP2 (IgG control), immunoblot
T3 sequence: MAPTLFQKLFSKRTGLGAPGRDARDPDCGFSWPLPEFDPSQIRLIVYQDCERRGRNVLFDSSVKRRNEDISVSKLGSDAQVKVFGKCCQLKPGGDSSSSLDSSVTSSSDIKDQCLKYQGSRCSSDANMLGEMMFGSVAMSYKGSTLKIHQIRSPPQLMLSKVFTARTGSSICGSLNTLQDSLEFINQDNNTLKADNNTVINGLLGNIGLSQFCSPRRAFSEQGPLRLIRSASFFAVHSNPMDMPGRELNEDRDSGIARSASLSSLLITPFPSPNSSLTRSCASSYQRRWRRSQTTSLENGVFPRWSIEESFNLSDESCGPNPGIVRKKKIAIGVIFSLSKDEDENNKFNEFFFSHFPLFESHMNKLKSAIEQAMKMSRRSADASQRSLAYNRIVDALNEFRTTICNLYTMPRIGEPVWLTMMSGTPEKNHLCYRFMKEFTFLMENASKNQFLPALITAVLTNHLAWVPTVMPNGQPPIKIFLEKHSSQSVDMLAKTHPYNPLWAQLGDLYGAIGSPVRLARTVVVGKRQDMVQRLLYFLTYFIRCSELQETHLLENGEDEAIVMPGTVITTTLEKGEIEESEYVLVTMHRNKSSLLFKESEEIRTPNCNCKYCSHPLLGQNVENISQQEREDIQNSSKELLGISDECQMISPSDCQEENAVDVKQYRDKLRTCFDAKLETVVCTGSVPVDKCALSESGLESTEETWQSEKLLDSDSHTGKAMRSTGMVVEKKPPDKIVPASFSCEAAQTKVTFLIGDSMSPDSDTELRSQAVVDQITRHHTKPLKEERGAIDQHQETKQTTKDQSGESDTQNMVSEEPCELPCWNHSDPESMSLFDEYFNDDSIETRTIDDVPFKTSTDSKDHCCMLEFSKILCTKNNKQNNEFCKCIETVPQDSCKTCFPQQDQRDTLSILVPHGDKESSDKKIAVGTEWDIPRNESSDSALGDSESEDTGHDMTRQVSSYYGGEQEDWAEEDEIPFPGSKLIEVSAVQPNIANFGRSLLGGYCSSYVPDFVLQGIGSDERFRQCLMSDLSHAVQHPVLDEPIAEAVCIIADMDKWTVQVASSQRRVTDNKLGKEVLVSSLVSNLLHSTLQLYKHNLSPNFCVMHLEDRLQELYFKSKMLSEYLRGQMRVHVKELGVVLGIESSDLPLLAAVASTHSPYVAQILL

[4] = molecular target: T4, endogenous FNIP2 (folliculin-interacting protein 2) (human (endogenous in HEK293, cancer cell lines and renal tissue)) (UniProt Q9P278); test: as above
T4 sequence: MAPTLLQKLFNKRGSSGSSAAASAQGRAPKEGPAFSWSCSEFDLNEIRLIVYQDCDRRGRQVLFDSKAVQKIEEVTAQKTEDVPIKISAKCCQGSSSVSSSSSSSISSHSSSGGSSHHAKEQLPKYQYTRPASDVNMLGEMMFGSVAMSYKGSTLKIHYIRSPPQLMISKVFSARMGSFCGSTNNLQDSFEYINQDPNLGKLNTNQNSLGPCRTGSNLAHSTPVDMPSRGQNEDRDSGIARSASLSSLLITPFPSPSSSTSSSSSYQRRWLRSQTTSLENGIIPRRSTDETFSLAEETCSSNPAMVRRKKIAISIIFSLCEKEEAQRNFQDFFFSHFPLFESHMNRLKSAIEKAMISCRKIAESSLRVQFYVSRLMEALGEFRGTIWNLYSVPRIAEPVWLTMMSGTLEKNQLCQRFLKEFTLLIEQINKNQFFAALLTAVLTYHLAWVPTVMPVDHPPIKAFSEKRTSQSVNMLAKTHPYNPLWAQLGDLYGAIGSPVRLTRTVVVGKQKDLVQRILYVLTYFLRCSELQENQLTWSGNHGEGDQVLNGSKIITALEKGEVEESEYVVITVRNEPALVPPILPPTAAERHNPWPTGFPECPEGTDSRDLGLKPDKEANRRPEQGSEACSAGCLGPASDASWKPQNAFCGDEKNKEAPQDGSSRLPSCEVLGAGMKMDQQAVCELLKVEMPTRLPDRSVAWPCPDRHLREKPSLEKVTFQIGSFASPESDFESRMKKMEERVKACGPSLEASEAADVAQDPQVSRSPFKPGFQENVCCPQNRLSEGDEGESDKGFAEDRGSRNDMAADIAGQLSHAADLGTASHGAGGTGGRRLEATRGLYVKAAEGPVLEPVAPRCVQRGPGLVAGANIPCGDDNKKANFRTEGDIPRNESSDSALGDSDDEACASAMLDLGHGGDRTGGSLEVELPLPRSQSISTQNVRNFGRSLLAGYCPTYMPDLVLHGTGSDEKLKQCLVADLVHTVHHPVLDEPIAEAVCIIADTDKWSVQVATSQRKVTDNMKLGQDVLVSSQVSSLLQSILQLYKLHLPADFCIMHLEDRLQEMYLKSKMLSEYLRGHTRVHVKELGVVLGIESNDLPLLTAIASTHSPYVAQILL

Aha1, endogenous (from UniProt O95433 1-338)
binding [1]: binds
binding [2]: binds

B-Raf, endogenous (from UniProt P15056 1-766)
binding [3]: binds
binding [4]: binds

CHIP, endogenous (from UniProt Q9UNE7 1-303)
binding [1]: binds
binding [2]: binds

HOP, endogenous (from UniProt P31948 1-543)
binding [1]: binds
binding [2]: binds
binding [3]: binds
binding [4]: binds

glucocorticoid receptor (GR), endogenous (from UniProt P04150 1-777)
binding [3]: binds
binding [4]: binds
